Data taken from paper PMC10891346.
These are yes or no findings as the source states them, for the method shown. In cells and extracts the contact can be indirect. For some assays here: Sequences can lack the tags named with a protein.

B1: Syntaxin6 tagged with the Myc sequence at the N-terminus (Myc-Syx6) (protein, UniProt O43752 1-255)
chain: MSMEDPFFVVKGEVQKAVNTAQGLFQRWTELLQDPSTATREEIDWTTNELRNNLRSIEWDLEDLDETISIVEANPRKFNLDATELSIRKAFITSTRQVVRDMKDQMSTSSVQALAERKNRQALLGDSGSQNWSTGTTDKYGRLDRELQRANSHFIEEQQAQQQLIVEQQDEQLELVSGSIGVLKNMSQRIGGELEEQAVMLEDFSHELESTQSRLDNVMKKLAKVSHMTSDRRQWCAIAILFAVLLVVLILFLVL
B2: in vitro-translated and [35S]-labeled Syx6 (protein, UniProt O43752 1-255)
chain: B1 chain
modifications: [35S]-labeled

How the values were obtained:
[1] = molecular target: FLAG-tagged Gag in which the majority of MA was deleted (GagΔMA) (HIV-1 (HXB2 and NL strains cloned; not stated which was used)); assay: co-IP
[2] = molecular target: GST-fused Gag fragment GagΔMA (HIV-1 (the HXB2 strain)); assay: pull-down; only the target purified

Binder | binding [1] | binding [2]
B1 | no binding | 
B2 |  | no binding
